Experimental data: publication PMC12532946
No constants are given. Whether binding was seen depends on the method and setting. Binding seen in cells or lysates may run through a third protein. Some results given as binding are weak or reduced against the parent protein; the word gives no strength.

Amino acid sequences for entries named in this document (tags omitted).
UniProt Q8CG73: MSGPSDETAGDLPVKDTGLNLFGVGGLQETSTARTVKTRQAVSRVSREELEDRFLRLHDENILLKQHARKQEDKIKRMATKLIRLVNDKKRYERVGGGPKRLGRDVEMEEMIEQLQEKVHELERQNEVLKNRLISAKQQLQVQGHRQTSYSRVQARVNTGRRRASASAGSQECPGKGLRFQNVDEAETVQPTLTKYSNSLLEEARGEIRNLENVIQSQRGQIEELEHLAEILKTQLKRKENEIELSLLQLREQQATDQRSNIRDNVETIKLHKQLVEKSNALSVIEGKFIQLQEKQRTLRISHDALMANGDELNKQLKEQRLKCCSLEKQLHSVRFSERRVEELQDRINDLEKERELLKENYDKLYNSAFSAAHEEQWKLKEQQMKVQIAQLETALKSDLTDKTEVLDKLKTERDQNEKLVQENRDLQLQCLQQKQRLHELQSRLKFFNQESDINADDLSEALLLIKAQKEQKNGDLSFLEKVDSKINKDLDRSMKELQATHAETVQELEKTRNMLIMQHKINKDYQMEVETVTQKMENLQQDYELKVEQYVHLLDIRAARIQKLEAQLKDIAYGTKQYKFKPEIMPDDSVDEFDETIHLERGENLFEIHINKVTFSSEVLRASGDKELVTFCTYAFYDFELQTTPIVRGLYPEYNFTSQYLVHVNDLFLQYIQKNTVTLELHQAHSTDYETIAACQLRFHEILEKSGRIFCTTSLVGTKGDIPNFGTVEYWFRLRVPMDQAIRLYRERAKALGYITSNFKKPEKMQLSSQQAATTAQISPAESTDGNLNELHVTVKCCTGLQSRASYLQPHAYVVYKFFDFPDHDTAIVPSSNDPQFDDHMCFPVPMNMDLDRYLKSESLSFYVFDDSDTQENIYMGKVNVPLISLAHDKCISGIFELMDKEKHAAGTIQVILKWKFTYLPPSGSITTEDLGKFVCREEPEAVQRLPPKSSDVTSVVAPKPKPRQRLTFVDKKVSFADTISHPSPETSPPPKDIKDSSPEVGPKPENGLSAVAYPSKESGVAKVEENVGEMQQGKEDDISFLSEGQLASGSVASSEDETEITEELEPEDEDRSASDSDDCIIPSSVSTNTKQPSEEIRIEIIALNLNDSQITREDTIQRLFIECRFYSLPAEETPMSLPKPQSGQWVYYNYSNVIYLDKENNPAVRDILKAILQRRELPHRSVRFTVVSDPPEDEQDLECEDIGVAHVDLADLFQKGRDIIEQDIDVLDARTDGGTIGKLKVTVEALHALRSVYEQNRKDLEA

Biological target: retinitis pigmentosa GTPase regulator-interacting protein 1-like (Rpgrip1l) (mouse (endogenous in mouse embryonic fibroblasts)) (UniProt Q8CG73)
Assay: proximity ligation; in situ PLA (Duolink, Detection Reagents Orange) on fixed, serum-starved mouse embryonic fibroblasts transiently transfected with IFT88-EYFP to mark cilia; endogenous proteins detected by primary antibodies; signal means proximity < 40 nm

binding: binds
B1: retinitis pigmentosa GTPase regulator-interacting protein 1 (Rpgrip1) (protein, UniProt Q9EPQ2 1-1331)
chain: MQHLLEYMPEDLPVRDTDSSPLLKGTSGKNVRAQPHLGRMNQKELNCRRLHLHEEPTLVKEPSPKQRDKNRRRRTNVQRSTTTQPDLRTLAVLQEPERRRRPWVSASPSPSAPPRAPVPGRKAHVQRLCPSTAVGSAQPRVHAGRRLPHIAGPNDRRSHTAPPAFKDYVADKNTRIEITREPSQLTHTMTTDSTHVEEIPRSPEKTSKVEKPEQRSSEECTQKAAELRASIKENVELIRLKKLLQERNTSLAATEAQLTRVQEAYEDLLQKNQGILDTAHNAFLSQVNELKAELSEESKKAVSLRTQLGDVSILQITLKEFQVRVEDLEKERKLLSDSYDRLLENMLDSSHQPLDSSHQPHWSTELTGKQLPPQVCPLLDQMGTALEETKVFRQATNKAAQDGKLKFQDTDILYQHEQEEESLQSTATVASSPEELCELAAQPTLLPQTDQRESSEPKAQDENDLSQVLSELQVSHAETTLELEKTRDMLLLQRKINMCYQEELEATLTKADRENRDHEEKLERLNHLLDFKNSRIKQLEGILRSHGLPTSEQLKDVAYGTLPPSLCLEPLAAHRGDDEVDMSLLHPSENLFELHVHQAFLTPAALTQAGDTQPTTFCTYSFYDFETHCTPLSTGPQPLYDFTSQYVVQADYLLLHYLQGTSVRLDLHQAMASEYHVLATGWISLDKVLGTVERVHGLATLAGAGGEDLGVLEYWMRLCLPLKPSLQACNKRKKAQAYLSVSVLGARKVQSNESRSETWAPQNELRVEITRCCGLRSRRLGRQPSPYVMYRFFTFPDHDTIIIPASSNPYFKDQALFPVLVTSDLDQYLRREALSVYVFDDEDPEPGSYLGRAQVPLLPLAQNKSIKGDFNLTDSGEKSNGSIKVQLDWKSHYLAPEGFQMSEAEKPEGEEKEEEGGEEEVKEEEVEEEEEEEEEEEEVKEEKEEEEEEEREEEEEKEEEKEEEEEEDEKEEEEEEEEEEEEEEEDENKDVLEASFTEEWVPFFSQDQIASTEIPIEAGQYPEKRKPPVIAEKKEREHQVASYSRRKHSKKPGVQDKNRMEYLSCNILNGNTQQMHYTEWKFSGLKKAEDGGLKAQDKREEPPSPRSALRQEHPSHPRNAFSLADQESCEQASEVSETQTTDSDDIIVTPQAQTVPKADSEKMCIEIVSLAFCPEADVMSDETIQQVYVEYKFCDLPLSETETPMSLRKPRAGEEIHFHFSKVIDLDPVEHQSRRQFLFAMLHAQDSDEGRFKFTVVSDPLDEEKKECQDIGYAYLELWQIFQSGKDILEQELEIVSPRNQAIQIGRLKVSLQAAAALHGIYKEMTEDLFS
